Experiment [1] has as its target T1, Sorbin and SH3 Domain Containing 2 (SORBS2), human iPS-derived cardiomyocytes (human (endogenous in hiPS-CMs)) (UniProt O94875).
T1 sequence: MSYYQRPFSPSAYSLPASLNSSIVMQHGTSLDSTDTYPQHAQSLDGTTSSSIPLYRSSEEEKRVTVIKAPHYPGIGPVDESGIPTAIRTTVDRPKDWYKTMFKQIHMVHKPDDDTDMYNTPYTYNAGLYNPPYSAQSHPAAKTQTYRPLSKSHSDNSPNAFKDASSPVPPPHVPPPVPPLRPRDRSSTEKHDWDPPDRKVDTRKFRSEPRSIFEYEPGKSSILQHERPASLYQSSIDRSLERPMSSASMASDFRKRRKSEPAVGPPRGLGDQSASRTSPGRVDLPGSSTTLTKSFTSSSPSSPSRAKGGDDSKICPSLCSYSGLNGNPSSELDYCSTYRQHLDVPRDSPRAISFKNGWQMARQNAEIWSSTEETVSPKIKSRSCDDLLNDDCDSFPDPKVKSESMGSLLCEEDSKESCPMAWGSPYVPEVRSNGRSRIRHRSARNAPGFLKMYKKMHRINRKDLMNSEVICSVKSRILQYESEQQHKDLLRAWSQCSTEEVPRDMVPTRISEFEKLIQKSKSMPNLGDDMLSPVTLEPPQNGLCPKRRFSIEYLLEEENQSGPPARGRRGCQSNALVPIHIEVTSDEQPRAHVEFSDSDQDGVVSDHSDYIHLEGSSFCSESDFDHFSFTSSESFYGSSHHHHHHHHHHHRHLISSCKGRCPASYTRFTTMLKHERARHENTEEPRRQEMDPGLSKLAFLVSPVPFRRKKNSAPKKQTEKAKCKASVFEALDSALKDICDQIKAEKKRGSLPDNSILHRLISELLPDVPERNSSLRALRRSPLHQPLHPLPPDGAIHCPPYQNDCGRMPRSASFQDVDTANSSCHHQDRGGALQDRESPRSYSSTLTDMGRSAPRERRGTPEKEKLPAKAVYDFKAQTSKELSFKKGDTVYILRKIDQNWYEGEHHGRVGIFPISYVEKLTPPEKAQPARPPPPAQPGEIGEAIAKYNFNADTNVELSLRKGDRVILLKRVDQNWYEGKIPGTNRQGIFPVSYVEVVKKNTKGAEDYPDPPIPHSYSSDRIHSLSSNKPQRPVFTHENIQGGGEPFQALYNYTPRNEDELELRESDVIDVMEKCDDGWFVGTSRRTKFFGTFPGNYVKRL
Nature of the experiment: co-IP; endogenous SORBS2 precipitated with a SORBS2 bait antibody from highly pure hiPS-CMs; western blot for WAVE2. On the technique in general: Immunoblotting shows a protein as a band on a membrane.

Amino acid sequences for entries named in this document (tags omitted).
UniProt Q8BH43: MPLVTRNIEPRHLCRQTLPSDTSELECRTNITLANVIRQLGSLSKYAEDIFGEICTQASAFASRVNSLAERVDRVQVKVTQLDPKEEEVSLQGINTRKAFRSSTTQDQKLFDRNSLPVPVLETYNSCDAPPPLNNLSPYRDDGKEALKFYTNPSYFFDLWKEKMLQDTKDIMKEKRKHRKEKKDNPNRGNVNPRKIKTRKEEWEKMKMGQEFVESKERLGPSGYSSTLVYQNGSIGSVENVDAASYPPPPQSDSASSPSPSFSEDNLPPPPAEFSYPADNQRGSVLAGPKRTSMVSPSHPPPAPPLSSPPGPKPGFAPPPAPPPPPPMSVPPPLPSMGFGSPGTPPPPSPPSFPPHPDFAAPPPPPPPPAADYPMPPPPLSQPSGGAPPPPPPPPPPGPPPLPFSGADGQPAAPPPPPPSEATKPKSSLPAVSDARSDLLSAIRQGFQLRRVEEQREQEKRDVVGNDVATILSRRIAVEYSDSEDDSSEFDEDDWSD
UniProt Q9Y6W5: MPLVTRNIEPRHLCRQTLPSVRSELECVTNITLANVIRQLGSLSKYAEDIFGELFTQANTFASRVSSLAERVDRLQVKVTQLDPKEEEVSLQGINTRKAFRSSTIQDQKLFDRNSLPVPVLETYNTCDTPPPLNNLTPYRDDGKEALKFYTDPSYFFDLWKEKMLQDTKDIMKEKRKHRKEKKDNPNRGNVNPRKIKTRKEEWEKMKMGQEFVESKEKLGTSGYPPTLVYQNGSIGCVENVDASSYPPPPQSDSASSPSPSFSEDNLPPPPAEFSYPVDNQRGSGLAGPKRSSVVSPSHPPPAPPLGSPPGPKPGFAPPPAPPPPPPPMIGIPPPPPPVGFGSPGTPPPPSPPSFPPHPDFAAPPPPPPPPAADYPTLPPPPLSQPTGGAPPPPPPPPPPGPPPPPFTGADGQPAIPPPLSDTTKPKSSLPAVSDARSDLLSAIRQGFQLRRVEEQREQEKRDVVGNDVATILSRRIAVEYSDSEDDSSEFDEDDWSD

The target of experiment [2] is WAVE2, cardiac tissue (mouse (endogenous in cardiac tissue)) (UniProt Q8BH43). Nature of the experiment: co-IP; reversed pull-down: WAVE2 bait antibody on cardiac tissue lysate; SORBS2 detected.

These are yes or no findings as the source states them, for the method shown. Binding seen in cells or lysates may run through a third protein. Some binding calls cover weakened binding; strength is not graded here.

“WAVE2, human iPS-derived cardiomyocytes (from UniProt Q9Y6W5 1-498)”: the binding entry in experiment [1] is given as “binds”.

B1: Sorbin and SH3 Domain Containing 2 (SORBS2), mouse heart (protein, UniProt Q3UTJ2 1-1180)
chain: MNTDSGGCARKRAAMSVTLTSVKRVQSSPNLLAAGRESQSPDSAWRSYNDRNPETLNGDATYSSLAAKGFRSVRPNLQDKRSPTQSQITINGNSGGAVSPVSYYQRPFSPSAYSLPASLNSSIIMQHGRSLDSAETYSQHAQSLDGTMGSSIPLYRSSEEEKRVTVIKAPHYPGIGPVDESGIPTAIRTTVDRPKDWYKTMFKQIHMVHKPGLYNSPYSAQSHPAAKTQTYRPLSKSHSDNGTDAFKEVPSPVPPPHVPPRPRDQSSTLKHDWDPPDRKVDTRKFRSEPRSIFEYEPGKSSILQHERPVSIYQSSIDRSLERPSSSASMAGDFRKRRKSEPAVGPLRGLGDQSSSRTSPGRADLPGSSSTFTKSFISSSPSSPSRAQGGDDSKMCPPLCSYSGLNGTPSGELECCNAYRQHLDVPGDSQRAITFKNGWQMARQNAEIWSSTEETVSPKIKSRSCDDLLNDDCDSFPDPKTKSESMGSLLCEEDSKESCPMTWASPYIQEVCGNSRSRLKHRSAHNAPGFLKMYKKMHRINRKDLMNSEVICSVKSRILQYEKEQQHRGLLHGWSQSSTEEVPRDVVPTRISEFEKLIQKSKSMPNLGDEMLSPITLEPPQNGLCPKRRFSIESLLEEETQVRHPSQGQRSCKSNTLVPIHIEVTSDEQPRTHMEFSDSDQDGVVSDHSDYVHVEGSSFCSESDFDHFSFTSSESFYGSSHHHHHHHHHHRHLISSCKGRCPASYTRFTTMLKHERAKHENMDRPRRQEMDPGLSKLAFLVSPVPFRRKKILTPQKQTEKAKCKASVVEALDSALKDICDQIKAEKRRGSLPDNSILHRLISELLPQIPERNSSLHALKRSPMHQPFHPLPPDGASHCPLYQNDCGRMPHSASFPDVDTTSNYHAQDYGSALSLQDHESPRSYSSTLTDLGRSASRERRGTPEKEKLPAKAVYDFKAQTSKELSFKKGDTVYILRKIDQNWYEGEHHGRVGIFPISYVEKLTPPEKAQPARPPPPVQPGEIGEAIAKYNFNADTNVELSLRKGDRIILLKRVDQNWYEGKIPGTNRQGIFPVSYVEVVKRNAKGAEDYPDPPLPHSYSSDRIYTLSSNKPQRPGFSHENIQGGGEPFQALYNYTPRNEDELELRESDVVDVMEKCDDGWFVGTSRRTKFFGTFPGNYVKRL
Consider B1, for which the binding entry in experiment [2] is reported as “binds”.

The values above are taken from article PMC12054630.
